The results in this text go back to article PMC3469465, “Muscle-Specific Splicing Factors ASD-2 and SUP-12 Cooperatively Switch Alternative Pre-mRNA Processing Patterns of the ADF/Cofilin Gene in Caenorhabditis elegans”.

This assay addresses His-GST-fused recombinant full-length ASD-2b (C. elegans). The assay can be described thus: pull-down; His-GST fusion proteins immobilised on glutathione sepharose 4B beads, incubated with His-SUP-12 in 100 µl pull-down buffer (20 mM HEPES-KOH pH 7.9, 150 mM KCl, 1% Triton X-100, 1 mM DTT, 0.1 mM PMSF) with 100 ng/µl E. coli tRNA, 50 ng/µl BSA and 0, 30, 100 or 300 nM unc-60-I1A RNA (WT, M1 or M2), 30 min at 20°C; four washes; gel stained with SimplyBlue SafeStain; both purified.

Results are given in words; binding and its absence hold for the method and conditions named. Binding calls can cover weak binding; strength is not graded here. Where a sequence is shown, tags or fusion partners need not be part of it.

B1: recombinant His-tagged full-length SUP-12 (protein, UniProt O45189 1-248)
chain: MYGQVQDPLVHAAAAALAQSTNAEPVVGSRDTMFTKIFVGGLPYHTSDKTLHEYFEQFGDIEEAVVITDRNTQKSRGYGFVTMKDRASAERACKDPNPIIDGRKANVNLAYLGAKPRTNVQLAALAAGQVQLPLTTQLQALFQPRMGLPQMYYPTVTGLVNPLMAQQGAAAQQQLFDYNALAAVMNPQAAAAYGIQSQGKFAAAPTTIEQYAAYPAGYGLVPQSAYNIGNPQLQQLAAAQQQLEHQRV
Regarding B1, the binding entry was “binds weakly”.
